According to the supplement of paper PMC10849652:
The other results are listed elsewhere or left out.

The chains behind the UniProt entries cited, without tags or fusion partners. Where a name states a change or a piece, a line headed by the entry shows the natural chain unless it says otherwise.
UniProt Q9NX18: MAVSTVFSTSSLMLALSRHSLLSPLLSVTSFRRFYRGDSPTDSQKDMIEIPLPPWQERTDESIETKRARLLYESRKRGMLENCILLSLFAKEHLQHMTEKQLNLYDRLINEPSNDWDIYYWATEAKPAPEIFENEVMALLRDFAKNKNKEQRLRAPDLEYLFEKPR
UniProt Q96HI0: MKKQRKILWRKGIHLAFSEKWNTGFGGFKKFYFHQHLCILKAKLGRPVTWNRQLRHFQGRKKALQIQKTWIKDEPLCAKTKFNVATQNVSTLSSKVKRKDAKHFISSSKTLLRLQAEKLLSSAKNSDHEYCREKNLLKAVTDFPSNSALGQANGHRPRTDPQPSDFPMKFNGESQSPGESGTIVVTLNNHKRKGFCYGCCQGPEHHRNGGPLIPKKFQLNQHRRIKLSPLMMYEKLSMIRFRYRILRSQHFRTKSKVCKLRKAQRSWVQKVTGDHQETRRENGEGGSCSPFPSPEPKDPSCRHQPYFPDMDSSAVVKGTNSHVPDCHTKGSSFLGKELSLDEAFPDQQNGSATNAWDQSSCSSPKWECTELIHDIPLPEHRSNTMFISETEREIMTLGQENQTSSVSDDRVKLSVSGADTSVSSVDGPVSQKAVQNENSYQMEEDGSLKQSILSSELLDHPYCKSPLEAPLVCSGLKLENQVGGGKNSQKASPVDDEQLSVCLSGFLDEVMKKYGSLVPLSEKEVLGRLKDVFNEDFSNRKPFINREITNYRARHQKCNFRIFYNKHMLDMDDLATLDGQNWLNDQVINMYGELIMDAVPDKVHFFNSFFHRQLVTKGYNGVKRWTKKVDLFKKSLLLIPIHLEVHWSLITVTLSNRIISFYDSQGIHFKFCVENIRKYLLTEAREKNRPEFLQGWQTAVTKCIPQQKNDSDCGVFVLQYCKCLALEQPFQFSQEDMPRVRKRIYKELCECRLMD
UniProt O14828: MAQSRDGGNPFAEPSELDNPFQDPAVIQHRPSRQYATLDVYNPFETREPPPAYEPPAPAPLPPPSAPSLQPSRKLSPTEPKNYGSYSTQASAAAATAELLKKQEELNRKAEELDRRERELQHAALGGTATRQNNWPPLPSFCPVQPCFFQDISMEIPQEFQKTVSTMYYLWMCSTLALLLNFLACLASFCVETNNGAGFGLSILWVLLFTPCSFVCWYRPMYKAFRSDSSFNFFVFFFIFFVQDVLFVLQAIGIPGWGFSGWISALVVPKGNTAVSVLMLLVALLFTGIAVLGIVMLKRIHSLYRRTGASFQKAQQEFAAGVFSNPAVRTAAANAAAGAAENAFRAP
UniProt O43819: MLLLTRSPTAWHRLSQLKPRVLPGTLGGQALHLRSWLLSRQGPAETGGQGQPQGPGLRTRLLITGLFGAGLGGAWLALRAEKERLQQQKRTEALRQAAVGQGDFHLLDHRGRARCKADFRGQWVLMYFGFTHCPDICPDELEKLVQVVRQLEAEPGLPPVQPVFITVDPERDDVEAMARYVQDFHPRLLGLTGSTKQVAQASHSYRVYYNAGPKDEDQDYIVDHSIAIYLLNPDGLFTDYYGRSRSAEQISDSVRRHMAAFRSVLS
UniProt P60059: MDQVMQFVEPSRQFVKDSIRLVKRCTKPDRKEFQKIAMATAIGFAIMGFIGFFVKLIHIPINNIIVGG
UniProt Q96ER3: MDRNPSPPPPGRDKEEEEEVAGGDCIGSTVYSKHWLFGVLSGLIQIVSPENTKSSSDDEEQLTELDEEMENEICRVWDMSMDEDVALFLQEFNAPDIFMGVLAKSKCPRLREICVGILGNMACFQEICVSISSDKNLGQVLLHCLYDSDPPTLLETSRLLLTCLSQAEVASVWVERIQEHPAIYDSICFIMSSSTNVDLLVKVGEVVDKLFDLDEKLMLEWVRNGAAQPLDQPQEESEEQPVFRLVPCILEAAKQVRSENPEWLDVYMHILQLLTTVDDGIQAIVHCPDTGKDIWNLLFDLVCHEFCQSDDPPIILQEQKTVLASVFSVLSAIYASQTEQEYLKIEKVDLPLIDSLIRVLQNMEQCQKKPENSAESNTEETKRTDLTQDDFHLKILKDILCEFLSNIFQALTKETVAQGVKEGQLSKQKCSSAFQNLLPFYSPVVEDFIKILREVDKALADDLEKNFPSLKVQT
UniProt Q9BRK5: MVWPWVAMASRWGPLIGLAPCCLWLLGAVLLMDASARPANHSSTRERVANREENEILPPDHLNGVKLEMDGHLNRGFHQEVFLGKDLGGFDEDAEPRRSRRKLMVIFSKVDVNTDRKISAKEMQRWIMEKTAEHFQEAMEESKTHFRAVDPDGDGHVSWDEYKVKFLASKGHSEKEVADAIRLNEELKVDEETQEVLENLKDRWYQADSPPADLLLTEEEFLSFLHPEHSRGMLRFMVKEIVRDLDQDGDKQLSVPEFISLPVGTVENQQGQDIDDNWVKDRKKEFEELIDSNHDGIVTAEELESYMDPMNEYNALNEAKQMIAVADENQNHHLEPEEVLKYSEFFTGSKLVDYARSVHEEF
UniProt Q9HB40: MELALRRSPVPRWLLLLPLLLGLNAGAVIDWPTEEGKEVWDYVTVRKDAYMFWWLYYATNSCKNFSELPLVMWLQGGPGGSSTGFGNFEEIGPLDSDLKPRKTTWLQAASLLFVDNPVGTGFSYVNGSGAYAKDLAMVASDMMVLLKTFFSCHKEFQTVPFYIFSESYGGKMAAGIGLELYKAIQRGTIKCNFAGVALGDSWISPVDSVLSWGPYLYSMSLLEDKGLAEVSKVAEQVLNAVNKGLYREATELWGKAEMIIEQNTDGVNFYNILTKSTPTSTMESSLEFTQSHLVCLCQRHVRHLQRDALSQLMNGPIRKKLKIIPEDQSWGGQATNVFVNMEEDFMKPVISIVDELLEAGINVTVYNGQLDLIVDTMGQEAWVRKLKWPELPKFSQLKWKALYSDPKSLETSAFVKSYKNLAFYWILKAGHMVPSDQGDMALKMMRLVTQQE
UniProt Q8WTV0: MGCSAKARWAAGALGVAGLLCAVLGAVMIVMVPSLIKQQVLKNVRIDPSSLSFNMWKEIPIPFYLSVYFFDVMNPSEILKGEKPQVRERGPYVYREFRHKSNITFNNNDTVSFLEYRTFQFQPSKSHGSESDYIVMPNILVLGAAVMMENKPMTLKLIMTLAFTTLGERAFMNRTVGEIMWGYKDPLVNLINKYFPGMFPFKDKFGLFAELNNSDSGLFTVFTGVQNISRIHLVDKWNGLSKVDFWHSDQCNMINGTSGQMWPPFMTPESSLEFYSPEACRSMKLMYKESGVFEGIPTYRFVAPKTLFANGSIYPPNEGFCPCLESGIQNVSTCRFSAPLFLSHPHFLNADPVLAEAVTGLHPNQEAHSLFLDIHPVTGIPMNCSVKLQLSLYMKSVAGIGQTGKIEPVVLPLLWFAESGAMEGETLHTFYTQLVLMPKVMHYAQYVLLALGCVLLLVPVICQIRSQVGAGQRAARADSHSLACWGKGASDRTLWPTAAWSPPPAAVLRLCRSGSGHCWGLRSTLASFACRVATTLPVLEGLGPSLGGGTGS
UniProt Q9BQE4, whole entry, looked up: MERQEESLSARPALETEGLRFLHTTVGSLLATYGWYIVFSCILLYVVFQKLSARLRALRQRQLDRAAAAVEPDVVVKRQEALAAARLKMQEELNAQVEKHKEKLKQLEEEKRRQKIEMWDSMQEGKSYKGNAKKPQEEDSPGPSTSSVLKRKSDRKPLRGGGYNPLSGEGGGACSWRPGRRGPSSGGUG
UniProt Q93073: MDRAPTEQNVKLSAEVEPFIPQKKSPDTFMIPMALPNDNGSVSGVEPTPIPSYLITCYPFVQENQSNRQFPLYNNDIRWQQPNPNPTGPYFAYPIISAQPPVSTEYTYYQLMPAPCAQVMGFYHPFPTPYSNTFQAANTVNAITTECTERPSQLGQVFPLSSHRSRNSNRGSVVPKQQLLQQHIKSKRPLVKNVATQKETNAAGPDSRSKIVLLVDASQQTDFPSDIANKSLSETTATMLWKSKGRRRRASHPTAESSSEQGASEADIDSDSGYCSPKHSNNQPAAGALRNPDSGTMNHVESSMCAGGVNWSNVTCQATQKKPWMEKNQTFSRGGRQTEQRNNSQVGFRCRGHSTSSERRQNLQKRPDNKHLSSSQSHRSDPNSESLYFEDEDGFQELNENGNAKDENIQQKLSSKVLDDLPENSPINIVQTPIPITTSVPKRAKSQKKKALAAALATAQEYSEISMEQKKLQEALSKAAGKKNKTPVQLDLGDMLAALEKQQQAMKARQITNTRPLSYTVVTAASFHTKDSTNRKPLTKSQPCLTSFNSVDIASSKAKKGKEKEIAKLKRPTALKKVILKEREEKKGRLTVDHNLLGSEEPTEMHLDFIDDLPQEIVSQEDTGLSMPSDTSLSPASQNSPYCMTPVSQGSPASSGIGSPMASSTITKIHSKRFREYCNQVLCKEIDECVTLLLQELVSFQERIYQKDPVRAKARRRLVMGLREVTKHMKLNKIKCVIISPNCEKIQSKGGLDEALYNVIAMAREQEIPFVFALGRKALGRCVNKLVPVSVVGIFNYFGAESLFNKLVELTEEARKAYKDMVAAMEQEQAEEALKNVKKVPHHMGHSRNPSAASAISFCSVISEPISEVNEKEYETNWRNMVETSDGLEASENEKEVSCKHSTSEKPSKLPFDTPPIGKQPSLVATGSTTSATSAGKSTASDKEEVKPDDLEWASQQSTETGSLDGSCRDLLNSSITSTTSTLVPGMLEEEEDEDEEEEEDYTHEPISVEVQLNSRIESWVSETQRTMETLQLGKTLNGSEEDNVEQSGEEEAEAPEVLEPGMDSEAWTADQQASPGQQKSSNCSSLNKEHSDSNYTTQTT
UniProt O95248: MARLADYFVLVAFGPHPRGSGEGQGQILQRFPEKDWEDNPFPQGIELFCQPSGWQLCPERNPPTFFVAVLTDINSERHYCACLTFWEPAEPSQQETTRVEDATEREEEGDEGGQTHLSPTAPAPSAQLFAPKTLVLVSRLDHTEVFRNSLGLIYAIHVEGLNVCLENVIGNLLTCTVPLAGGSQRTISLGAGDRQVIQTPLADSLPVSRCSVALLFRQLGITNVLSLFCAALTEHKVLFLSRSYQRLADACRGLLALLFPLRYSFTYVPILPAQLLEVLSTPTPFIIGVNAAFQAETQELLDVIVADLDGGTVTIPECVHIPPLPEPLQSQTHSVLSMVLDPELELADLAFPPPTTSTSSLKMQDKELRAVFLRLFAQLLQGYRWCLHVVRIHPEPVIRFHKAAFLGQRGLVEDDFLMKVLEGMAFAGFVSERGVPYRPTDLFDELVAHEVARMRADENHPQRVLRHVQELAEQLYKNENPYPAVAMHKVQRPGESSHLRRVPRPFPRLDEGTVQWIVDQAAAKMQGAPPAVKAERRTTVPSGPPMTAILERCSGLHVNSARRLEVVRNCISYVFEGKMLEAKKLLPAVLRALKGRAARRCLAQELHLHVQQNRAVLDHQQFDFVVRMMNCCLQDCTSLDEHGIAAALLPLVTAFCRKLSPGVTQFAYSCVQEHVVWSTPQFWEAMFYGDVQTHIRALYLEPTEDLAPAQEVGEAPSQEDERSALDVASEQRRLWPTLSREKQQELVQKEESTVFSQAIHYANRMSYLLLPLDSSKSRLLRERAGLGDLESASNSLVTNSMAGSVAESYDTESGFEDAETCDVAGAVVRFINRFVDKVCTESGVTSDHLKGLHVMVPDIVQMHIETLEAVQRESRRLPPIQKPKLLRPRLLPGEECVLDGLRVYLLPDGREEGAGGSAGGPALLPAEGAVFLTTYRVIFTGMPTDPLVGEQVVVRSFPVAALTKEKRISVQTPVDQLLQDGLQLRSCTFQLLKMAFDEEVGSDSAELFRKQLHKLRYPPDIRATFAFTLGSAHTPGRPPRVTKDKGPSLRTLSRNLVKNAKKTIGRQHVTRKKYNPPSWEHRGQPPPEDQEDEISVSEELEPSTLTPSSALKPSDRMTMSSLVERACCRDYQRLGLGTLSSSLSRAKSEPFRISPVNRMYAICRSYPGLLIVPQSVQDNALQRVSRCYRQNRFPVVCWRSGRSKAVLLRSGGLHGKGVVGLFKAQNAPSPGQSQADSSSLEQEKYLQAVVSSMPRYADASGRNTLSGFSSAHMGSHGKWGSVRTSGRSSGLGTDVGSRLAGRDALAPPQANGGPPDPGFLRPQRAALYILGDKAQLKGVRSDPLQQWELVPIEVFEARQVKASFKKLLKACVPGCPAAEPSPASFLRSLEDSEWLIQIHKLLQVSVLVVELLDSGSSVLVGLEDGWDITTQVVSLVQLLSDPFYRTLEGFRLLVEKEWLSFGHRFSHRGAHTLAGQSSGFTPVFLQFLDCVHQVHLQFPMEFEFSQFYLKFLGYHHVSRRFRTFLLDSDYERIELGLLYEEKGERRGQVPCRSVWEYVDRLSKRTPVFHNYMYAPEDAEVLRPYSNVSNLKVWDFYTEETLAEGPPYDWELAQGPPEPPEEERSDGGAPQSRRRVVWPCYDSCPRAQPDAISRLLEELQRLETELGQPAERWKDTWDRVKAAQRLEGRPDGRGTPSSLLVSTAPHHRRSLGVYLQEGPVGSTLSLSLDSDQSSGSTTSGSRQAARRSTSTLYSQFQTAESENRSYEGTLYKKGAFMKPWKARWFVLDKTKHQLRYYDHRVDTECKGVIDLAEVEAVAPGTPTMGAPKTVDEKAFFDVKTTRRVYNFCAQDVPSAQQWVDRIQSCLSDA

Assays:
Assay in all cases: log2 fold change, soluble protein after heating vs DMSO (PISA); higher = thermal stabilisation; K562 lysate, 10 uM; active = over 0.2 and 3.5 SD of the protein, either way, in both replicates (recomputed)
[1] = compound: C1=CC=C(C=C1)[C@H](COC2=CC3=C(C=C2)NC(=O)N3)NC(=O)C4=CC=CN(C4=O)CC5=CC(=C(C=C5)F)F
Procedure, shortened: (§1)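 Pellets of K562 cells were dounce-homogenised in PBS pH 7.4 with 1 mM MgCl2, and the crude extract was held at 1 mg/mL protein for a 30 min treatment with 10 μM compound. Aliquots were heated for 3 min over 48°C-58°C and pooled before NP-40 was added to 0.5% at 4°C. The supernatant from 21,000xg for 90 min was quantified by TMTpro 16plex LC-MS/MS with channel sums equalised. Values are reported from duplicates as log-two fold change in thermal stability relative to solvent controls.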

[2] = compound: CC1=C(SC2=C1C(=N[C@H](C3=NN=C(N32)C)CC(=O)N)C4=CC=C(C=C4)Cl)C
Procedure, shortened: as §1

[3] = compound: CC1=C2C(=CC=C1)N=C(N(C2=O)C3=CC=CC=C3C)CN4C=NC5=C(N=CN=C54)N
Procedure, shortened: as §1

[4] = compound: Cc1sc2c(c1C)C(c1ccc(Cl)cc1)=N[C@@H](CC(=O)OC(C)(C)C)c1nnc(C)n1-2
Procedure, shortened: as §1

[5] = compound: c1ccc([C@@H]2C[C@H]2NC2CCNCC2)cc1
Procedure, shortened: as §1

Measured: log2 fold change

SDHAF2 (UniProt Q9NX18)
inactive: [1] 0.097 | [2] 0.003 | [3] -0.011 | [4] -0.021

SENP5 (UniProt Q96HI0)
inactive: [1] -0.072 | [2] 0.082 | [3] -0.004 | [4] 0.024

SCAMP3 isoform 2 (UniProt O14828)
inactive: [1] 0.217 | [2] -0.214 | [3] 0.046 | [4] 0.079 | [5] 0.05

SCO2 (UniProt O43819)
inactive: [1] 0.026 | [2] 0.002 | [3] 0.037 | [4] 0.011 | [5] -0.074

SEC61G (UniProt P60059)
inactive: [1] 0.269 | [2] -0.063 | [3] -0.016 | [4] -0.065 | [5] -0.225

SCFD1 (UniProt Q8WVM8)
inactive: [1] -0.021 | [2] -0.003 | [3] -0.009 | [4] 0.052 | [5] 0.011

SAAL1 (UniProt Q96ER3)
inactive: [1] -0.005 | [2] 0.002 | [3] 0.003 | [4] -0.017 | [5] 0.068

SDF4 (UniProt Q9BRK5)
inactive: [1] 0.076 | [2] -0.029 | [3] 0.01 | [4] 0.021 | [5] 0.017

SCPEP1 (UniProt Q9HB40)
inactive: [1] -0.048 | [2] 0.002 | [3] -0.087 | [4] 0 | [5] 0.04

SCARB1 isoform 2 (UniProt Q8WTV0)
inactive: [1] 0.015 | [2] 0.027 | [3] -0.009 | [4] -0.06 | [5] -0.026

Quoted from above (two entries):
SEC61G (UniProt P60059)
inactive: [1] 0.269 | [2] -0.063 | [3] -0.016 | [4] -0.065 | [5] -0.225

SCFD1 (UniProt Q8WVM8)
inactive: [1] -0.021 | [2] -0.003 | [3] -0.009 | [4] 0.052 | [5] 0.011

Next records follow.

SCO1 (UniProt O75880)
inactive: [1] -0.021 | [2] 0.017 | [3] 0 | [4] 0.136 | [5] -0.027

SELENOS (UniProt Q9BQE4)
inactive: [1] 0.019 | [2] 0.022 | [3] -0.104 | [4] 0.042 | [5] 0

SEC23B (UniProt Q15437)
inactive: [1] 0.008 | [2] 0 | [3] 0.013 | [4] 0.003 | [5] 0.018

SECISBP2L (UniProt Q93073)
inactive: [1] 0.25 | [2] -0.085 | [3] 0 | [4] 0 | [5] 0.116

SAMD4A (UniProt Q9UPU9)
inactive: [1] 0.114 | [2] 0.086 | [3] -0.01 | [4] -0.079 | [5] -0.03

SBF1 isoform 4 (UniProt O95248)
inactive: [1] -0.08 | [2] 0.001 | [3] -0.094 | [4] 0.092 | [5] 0.072
